Data on one molecule can be found in PMC8985176, “Structural transformation of methasterone with Cunninghamella blakesleeana and Macrophomina phaseolina” (RSC Advances, 2022).

Assay [1] relates to MCF-7 (breast cancer) cell line. Nature of the assay: Cytotoxicity MTT assay, MCF-7 cells. It is filed as cell-based. The following applies: Homo sapiens, MCF7, 48 h, read-out: IC50 against MCF-7. How it is done:
(§1) MCF-7 (breast cancer), NCI-H460 (lung cancer), HeLa (cervical cancer) cell lines, and BJ (normal human fibroblast) cell lines were collected from cell culture biobank (PCMD, ICCBS). DMEM medium was used for MCF-7, HeLa, and BJ, and RPMI (ATCC modified medium) was used for NCI-H460. The media was supplemented with 10% FBS, 100 IU mL^−1 of penicillin, and 100 μg mL^−1 of streptomycin, and kept at 37 °C in a 5% CO2 incubator. The inhibition was investigated by MTT assay. Briefly, 100 μL per well of cell solutions (10 × 10^4 cells per mL MCF-7 cells, 5 × 10^4 cells per mL NCI-H460 cells, 6 × 10^4 cells per mL HeLa cells, or 5 × 10^4 cells per mL BJ cells), were added into 96-well plate and incubated for 24 h at 37 °C, before treatment with 6.25–50 μM of compounds or positive control doxorubicin for 48 h. After this, 20 μL of MTT (5 mg mL^−1) was added to each well and then incubated for 4 h at 37 °C. Then 100 μL DMSO was added to each well to dissolve the purple formazan crystal. The absorbance was analyzed at 570 nm (MCF-7, NCI-H460, and HeLa) or 550 nm (BJ) using an ELISA plate reader.
In general terms: Tetrazolium assays rely on reduction of a dye to a coloured formazan, in cell work by metabolically active cells.

Assay [2] concerns HeLa (cervical cancer) cell line. Nature of the assay: Cytotoxicity MTT assay, HeLa cells. It is filed as cell-based. To be noted: Homo sapiens, 48 h, read-out: IC50 against HeLa cell line. How it is done: as §1

A word on the IC50: it is the concentration that inhibits the measured activity by half.

≈ marks a conversion by molar mass, not a printed value.

Consider `COc1cccc2c1C(=O)c1c(O)c3c(c(O)c1C2=O)C[C@@](O)(C(=O)CO)C[C@@H]3O[C@H]1C[C@H](N)[C@H](O)[C@H](C)O1` [doxorubicin, reference compound], for which the results for the IC50 in assay [1] and in assay [2] were 1.2 ± 0.11 µg/mL (≈ 2.21 µM) and 0.16 ± 0.01 µg/mL (≈ 0.294 µM), respectively.
